Results as given in patent US20250161441A1, “MEDICINE COMPRISING COMBINATION OF ANTI-MUTANT-CALR ANTIBODY AND ANOTHER DRUG” (JUNTENDO EDUCATIONAL FOUNDATION, priority 2022, published 2025).
Changes are numbered by the printed parent chain. Results are given in words; binding and its absence hold for the method and conditions named. Some results given as binding are weak or reduced against the parent protein; the word gives no strength.

B1: clone B3 antibody (antibody, V domains shown)
VH: QVQLQQSGAELVKPGSSVKISCKASGYTFTRNFIHWIKQQPGNGLEWIGWIFPGDGDTEYNQKFNGKATLTADKSSSTAYMQLSSLTSEDSAVYFCARGNYNYEYFDYWGQGVMVTVSS
VL: DIQMTQSPASLSASLGETVSIECLASEDIYSYLAWYQQKPGKSPQLLIFAANRLQDGVPSRFSGSGSGTQFSLKISGMQPEDEGDYFCLQGSKFPYTFGPGTKLELN
B2: clone C6 antibody (antibody, V domains shown)
VH: QVQLQQSGAELVKPGSSVKISCKASGYTFTSYFVHWIKQQPGDGLEWIGWIYPGDGDTEYNHKFNGKSTLTADRSSSTAYMQLSSLTSEDSAVYFCARGNYYDGREVMDAWGQGASVTVSS
VL: DVVLTQTPPTLSATIGQSVSISCRSSQSLLDSDGETYLNWLLQRPGQSPQLLIYSVSNLESGVPNRFSGSGSETDFTLKISGMEAEDLGVYYCMQATHGPYTFGAGTKLELK
B3: clone G1 antibody (antibody, V domains shown)
VH: B2 VH with H62Q, S68A
VL: B2 VL with S48C, M83V, A96G

target: cleaved Del 52 type mutant CALR protein (FLAG-tagged, from culture supernatant) (UniProt P27797); assay: Western blot of culture supernatant of UT-7/TPO cells expressing FLAG-tagged mutant CALR

binding, binds:
B1, B2, B3

target: cleaved Ins 5 type mutant CALR protein (FLAG-tagged, from culture supernatant) (UniProt P27797); assay: as above

binding, binds:
B1, B2, B3

target: full-length Ins 5 type mutant CALR protein having a FLAG-tag inserted downstream of the signal sequence at the N-terminus (UniProt P27797); assay: as above

binding, binds:
B1, B2, B3
